Results: patent US20040235813A1, “Compounds that inhibit hsp90 and stimulate hsp70 and hsp40, useful in the prevention or treatment of diseases associated with protein aggregation and amyloid formation” (priority 2001, published 2004)
For at least one compound, name, drawing or mass did not settle the structure.

System: EGFP-HD72Q protein aggregates in COS-1 cells
Experiment: Fluorescence microscopy of EGFP-HD72Q aggregates in GA treated COS-1 cells
Format: cell-based

COC1=C2C[C@@H](C)C[C@H](OC)[C@H](O)[C@@H](C)/C=C(\C)[C@H](OC(N)=O)[C@@H](OC)/C=C\C=C(/C)C(=O)NC(=CC1=O)C2=O [GA, Geldanamycin]
perinuclear inclusion bodies with aggregated huntingtin protein, immunofluorescence microscopy (GA 360 nM, 40 hours): no perinuclear inclusion bodies with aggregated huntingtin protein were observed | EGFP-HD72Q aggregates seen by fluorescence microscopy (GA 18-90 nM): large perinuclear inclusion bodies were replaced by smaller dot-like protein aggregates | EGFP-HD72Q aggregates seen by fluorescence microscopy (GA 180-360 nM): smaller aggregates were no longer detectable
